Results from US20250170247A1, “CONJUGATES, AND USES THEREOF” (CITY UNIVERSITY OF HONG KONG, priority 2023, published 2025).

Target: T1, DHX36 (endogenous, HeLa) (Homo sapiens) (UniProt Q9H2U1)
T1 sequence (looked up, limits assumed): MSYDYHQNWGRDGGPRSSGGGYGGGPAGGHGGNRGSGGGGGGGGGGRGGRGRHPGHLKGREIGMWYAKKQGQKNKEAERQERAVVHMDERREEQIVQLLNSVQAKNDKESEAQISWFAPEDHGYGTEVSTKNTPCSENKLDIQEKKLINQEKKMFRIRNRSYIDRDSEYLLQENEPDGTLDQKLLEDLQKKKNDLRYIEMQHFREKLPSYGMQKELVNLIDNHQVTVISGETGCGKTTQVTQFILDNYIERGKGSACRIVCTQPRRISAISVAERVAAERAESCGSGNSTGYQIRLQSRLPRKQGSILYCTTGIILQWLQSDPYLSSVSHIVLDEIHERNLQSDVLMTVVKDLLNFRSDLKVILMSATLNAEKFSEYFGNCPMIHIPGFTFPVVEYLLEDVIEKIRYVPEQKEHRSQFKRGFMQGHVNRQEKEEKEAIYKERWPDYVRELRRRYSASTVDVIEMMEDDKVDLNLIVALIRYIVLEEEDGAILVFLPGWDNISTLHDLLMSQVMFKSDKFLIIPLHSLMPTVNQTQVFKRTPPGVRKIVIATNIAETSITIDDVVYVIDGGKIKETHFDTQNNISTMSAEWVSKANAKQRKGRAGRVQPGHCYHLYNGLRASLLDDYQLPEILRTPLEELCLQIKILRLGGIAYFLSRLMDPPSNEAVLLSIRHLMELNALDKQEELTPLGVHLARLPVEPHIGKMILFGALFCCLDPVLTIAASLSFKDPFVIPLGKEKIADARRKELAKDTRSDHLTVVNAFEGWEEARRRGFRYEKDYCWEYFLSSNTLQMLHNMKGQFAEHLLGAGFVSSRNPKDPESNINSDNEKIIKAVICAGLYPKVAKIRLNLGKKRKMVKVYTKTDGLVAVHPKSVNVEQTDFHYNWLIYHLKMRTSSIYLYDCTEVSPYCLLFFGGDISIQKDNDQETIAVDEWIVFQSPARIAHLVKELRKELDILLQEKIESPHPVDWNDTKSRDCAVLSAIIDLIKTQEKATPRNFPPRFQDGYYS
Assay: binding assay
Settings: 5'-hexynyl clicked to azide-modified AHPC; confocal foci colocalized with endogenous DHX36 in HeLa, data not shown; protein in cells; label: 3'-FAM

“GGGUUGCGGAGGGUGGGCCU [FAM_rG4_A (hTERC rG4 WT-AHPC conjugate)]”: binds.

Where cells or extracts were used, other partners may take part. Where a protein sequence is shown, tags need not be part of it.
